In this assay the target is NF-κB p65 RelA (mouse (endogenous in AML-12 and BMDMs)) (UniProt Q04207). The experiment in a line: co-IP; AML-12 cells and BMDMs treated with genipin or vehicle (also genipin with GW9662), lysed in NP-40 buffer; p65 precipitated with anti-NF-kB p65/RelA mAb on Protein A/G magnetic beads; PPARγ detected by blot.

The chains behind the UniProt entries cited, without tags or fusion partners.
UniProt Q04207: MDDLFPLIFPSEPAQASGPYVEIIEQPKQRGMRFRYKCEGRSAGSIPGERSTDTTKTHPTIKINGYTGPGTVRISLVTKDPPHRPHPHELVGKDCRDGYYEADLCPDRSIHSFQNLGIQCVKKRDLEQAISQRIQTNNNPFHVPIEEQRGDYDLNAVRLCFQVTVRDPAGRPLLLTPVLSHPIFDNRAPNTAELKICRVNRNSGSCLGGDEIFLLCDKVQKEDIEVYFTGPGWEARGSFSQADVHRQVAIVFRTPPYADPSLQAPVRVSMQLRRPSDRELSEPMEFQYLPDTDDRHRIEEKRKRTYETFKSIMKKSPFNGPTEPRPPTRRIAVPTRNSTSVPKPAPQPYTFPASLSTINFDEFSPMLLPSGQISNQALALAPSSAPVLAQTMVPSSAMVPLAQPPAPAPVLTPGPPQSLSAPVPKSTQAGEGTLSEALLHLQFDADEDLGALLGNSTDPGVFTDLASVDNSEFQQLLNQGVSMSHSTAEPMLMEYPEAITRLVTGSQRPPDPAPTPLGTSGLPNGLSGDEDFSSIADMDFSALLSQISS
UniProt P37238: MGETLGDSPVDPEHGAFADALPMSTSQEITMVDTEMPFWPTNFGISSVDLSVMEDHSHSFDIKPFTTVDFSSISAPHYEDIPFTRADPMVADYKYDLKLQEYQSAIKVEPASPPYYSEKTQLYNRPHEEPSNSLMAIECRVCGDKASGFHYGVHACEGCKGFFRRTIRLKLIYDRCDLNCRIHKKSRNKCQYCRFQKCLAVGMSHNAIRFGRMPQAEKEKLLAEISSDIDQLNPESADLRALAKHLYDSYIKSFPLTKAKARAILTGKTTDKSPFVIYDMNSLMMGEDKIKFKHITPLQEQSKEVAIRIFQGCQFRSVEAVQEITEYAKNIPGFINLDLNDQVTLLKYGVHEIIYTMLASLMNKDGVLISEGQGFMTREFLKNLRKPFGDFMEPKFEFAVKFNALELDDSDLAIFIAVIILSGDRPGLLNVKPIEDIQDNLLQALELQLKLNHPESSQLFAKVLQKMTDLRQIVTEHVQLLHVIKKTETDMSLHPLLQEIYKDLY

No constants are given. Whether binding was seen depends on the method and setting. Binding seen in cells or lysates may run through a third protein. Some entries that bind do so weakly or less than the wild type.

Take PPARγ (from UniProt P37238 1-505): the binding entry was “binds”.

The record behind these values is article PMC10620825.
